Publication PMC6981637, “Tetrahydroquinoline-Isoxazole/Isoxazoline Hybrid Compounds as Potential Cholinesterases Inhibitors: Synthesis, Enzyme Inhibition Assays, and Molecular Modeling Studies” (International Journal of Molecular Sciences, 2019)

The chains behind the UniProt entries cited, without tags or fusion partners. Residues count along the entry.
UniProt O42275, 24-633 limits assumed: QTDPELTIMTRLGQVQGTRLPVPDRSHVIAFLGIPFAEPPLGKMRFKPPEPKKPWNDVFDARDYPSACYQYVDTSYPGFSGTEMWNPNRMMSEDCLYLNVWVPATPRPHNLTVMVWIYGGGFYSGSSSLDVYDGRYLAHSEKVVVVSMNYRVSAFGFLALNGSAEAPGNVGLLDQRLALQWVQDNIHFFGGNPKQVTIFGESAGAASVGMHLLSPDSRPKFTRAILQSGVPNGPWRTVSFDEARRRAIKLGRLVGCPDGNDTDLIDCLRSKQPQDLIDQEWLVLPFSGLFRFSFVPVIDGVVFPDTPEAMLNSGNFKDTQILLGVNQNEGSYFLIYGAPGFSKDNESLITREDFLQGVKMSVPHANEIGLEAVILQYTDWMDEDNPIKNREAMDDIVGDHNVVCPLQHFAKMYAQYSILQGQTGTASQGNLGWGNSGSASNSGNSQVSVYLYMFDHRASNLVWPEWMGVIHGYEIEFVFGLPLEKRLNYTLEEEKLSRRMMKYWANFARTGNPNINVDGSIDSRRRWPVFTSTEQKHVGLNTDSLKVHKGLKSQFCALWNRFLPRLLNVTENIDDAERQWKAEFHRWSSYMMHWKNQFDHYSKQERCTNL

Target: AChE (from Electrophorus electricus) (Electrophorus electricus, UniProt O42275)
Test: AChE inhibitory activity (Ellman method)
Conditions: read-out: IC50 AChE

## COc1ccc(C2=NOC(CN3CCC(N4CCCC4=O)c4cc(Cl)ccc43)C2)cc1 (stereo not shown) [5n, 5-[(6-chloro-4-(2′-oxopyrrolidin-1′-yl)-3,4-dihydroquinolin-1(2H)-yl)-methyl]-3-(4-methoxyphenyl)-4,5-dihydroisoxazole]
  IC50: < 15.3 µM and 4.24 µM

Some entries of the source have several records that differ or are many. This is not the full list of results. The source may hold further records. Results that share an entry do not match, cause unknown; dose, time, organism, isomer or construct need not be as stated for each record.
